The values that follow come from PMC3720655.

Sequences of proteins named here, by UniProt entry; tags and fusion partners are left off. A change or cut given only in a name is not applied to a line headed by its entry. Residues count along the entry.
UniProt P27824, residues 21-592: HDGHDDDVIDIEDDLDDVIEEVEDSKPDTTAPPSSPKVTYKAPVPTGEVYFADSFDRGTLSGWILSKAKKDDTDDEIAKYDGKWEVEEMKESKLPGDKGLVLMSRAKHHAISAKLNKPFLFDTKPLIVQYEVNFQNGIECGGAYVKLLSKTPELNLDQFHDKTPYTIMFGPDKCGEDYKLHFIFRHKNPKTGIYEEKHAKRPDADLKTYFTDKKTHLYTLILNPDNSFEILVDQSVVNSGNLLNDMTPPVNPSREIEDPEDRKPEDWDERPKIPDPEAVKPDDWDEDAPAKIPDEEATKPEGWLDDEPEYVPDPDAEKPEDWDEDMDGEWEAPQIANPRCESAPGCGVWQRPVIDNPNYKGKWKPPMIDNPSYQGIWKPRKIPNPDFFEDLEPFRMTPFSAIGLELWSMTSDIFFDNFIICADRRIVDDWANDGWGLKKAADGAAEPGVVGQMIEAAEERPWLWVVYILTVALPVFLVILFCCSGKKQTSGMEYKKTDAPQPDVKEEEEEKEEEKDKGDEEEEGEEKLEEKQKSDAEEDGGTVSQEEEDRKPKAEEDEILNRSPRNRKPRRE
UniProt P07339: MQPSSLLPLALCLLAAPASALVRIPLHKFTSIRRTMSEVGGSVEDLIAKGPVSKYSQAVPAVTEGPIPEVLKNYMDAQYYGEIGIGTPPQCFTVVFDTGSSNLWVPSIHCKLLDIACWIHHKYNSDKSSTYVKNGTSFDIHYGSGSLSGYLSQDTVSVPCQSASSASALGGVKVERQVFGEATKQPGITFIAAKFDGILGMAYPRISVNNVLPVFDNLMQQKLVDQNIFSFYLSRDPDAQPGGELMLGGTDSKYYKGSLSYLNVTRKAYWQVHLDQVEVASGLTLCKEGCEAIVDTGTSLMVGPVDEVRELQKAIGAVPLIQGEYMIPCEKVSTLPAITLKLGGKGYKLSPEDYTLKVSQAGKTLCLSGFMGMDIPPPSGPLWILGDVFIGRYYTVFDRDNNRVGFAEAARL
UniProt P60228: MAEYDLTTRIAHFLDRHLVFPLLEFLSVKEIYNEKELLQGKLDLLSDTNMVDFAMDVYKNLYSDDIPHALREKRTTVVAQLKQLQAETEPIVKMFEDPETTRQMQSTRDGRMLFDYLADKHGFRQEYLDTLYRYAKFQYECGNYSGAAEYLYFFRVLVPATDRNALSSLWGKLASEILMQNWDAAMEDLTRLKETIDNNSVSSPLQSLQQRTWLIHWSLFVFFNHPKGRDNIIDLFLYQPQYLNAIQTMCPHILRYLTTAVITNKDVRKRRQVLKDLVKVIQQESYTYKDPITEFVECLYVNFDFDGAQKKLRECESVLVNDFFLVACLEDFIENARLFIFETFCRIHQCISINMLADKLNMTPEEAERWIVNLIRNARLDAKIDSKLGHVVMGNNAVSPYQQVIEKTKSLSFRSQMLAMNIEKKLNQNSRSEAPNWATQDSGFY
UniProt P29317, residues 24-976: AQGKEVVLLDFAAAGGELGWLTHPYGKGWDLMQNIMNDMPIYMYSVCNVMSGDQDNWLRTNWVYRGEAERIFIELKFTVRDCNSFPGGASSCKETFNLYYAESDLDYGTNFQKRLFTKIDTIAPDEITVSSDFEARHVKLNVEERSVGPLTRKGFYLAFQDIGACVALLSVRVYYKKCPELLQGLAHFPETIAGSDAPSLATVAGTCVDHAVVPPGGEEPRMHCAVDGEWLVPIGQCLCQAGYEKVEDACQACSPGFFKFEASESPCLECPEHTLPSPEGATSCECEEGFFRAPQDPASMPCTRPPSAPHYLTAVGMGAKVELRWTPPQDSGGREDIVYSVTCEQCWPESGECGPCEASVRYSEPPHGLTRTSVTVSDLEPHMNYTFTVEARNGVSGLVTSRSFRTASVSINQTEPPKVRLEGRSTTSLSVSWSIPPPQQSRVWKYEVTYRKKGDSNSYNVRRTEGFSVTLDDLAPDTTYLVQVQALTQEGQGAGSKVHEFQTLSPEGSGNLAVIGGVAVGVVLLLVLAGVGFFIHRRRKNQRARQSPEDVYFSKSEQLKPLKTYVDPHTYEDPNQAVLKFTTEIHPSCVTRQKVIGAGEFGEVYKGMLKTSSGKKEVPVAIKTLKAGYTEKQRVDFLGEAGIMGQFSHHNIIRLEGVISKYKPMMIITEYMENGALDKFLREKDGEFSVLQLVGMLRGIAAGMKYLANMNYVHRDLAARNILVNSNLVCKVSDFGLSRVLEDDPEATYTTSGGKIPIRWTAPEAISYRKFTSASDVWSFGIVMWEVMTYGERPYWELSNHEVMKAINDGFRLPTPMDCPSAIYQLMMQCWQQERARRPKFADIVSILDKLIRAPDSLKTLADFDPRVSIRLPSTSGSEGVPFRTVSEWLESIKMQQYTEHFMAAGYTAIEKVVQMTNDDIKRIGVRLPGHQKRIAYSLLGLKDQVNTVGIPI
UniProt Q92522: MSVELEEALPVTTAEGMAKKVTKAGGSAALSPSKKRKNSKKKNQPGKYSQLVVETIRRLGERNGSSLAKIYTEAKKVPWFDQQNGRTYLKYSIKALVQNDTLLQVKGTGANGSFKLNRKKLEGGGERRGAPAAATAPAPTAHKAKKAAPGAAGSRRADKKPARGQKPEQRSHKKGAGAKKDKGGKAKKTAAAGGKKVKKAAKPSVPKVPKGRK
UniProt P14625, residues 22-803: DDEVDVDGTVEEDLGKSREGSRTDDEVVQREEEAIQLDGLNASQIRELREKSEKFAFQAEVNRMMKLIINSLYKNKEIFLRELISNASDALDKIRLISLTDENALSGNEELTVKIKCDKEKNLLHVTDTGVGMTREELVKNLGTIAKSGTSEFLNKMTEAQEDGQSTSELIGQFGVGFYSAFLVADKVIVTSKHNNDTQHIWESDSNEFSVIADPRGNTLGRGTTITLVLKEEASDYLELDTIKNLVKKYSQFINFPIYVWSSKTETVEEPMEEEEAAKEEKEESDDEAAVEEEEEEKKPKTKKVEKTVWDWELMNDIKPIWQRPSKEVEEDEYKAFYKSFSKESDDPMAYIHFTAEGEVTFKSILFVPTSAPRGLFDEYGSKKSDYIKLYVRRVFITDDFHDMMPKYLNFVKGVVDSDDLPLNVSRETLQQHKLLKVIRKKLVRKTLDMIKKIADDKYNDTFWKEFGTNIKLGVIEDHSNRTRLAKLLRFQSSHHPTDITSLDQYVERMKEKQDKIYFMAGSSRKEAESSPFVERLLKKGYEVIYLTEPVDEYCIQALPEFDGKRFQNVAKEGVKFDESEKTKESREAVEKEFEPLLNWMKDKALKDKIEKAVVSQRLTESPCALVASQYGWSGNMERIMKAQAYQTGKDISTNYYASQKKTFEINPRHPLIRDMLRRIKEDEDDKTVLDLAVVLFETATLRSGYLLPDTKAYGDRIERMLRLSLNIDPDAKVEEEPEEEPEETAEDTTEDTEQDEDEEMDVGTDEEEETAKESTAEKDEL
UniProt Q14573: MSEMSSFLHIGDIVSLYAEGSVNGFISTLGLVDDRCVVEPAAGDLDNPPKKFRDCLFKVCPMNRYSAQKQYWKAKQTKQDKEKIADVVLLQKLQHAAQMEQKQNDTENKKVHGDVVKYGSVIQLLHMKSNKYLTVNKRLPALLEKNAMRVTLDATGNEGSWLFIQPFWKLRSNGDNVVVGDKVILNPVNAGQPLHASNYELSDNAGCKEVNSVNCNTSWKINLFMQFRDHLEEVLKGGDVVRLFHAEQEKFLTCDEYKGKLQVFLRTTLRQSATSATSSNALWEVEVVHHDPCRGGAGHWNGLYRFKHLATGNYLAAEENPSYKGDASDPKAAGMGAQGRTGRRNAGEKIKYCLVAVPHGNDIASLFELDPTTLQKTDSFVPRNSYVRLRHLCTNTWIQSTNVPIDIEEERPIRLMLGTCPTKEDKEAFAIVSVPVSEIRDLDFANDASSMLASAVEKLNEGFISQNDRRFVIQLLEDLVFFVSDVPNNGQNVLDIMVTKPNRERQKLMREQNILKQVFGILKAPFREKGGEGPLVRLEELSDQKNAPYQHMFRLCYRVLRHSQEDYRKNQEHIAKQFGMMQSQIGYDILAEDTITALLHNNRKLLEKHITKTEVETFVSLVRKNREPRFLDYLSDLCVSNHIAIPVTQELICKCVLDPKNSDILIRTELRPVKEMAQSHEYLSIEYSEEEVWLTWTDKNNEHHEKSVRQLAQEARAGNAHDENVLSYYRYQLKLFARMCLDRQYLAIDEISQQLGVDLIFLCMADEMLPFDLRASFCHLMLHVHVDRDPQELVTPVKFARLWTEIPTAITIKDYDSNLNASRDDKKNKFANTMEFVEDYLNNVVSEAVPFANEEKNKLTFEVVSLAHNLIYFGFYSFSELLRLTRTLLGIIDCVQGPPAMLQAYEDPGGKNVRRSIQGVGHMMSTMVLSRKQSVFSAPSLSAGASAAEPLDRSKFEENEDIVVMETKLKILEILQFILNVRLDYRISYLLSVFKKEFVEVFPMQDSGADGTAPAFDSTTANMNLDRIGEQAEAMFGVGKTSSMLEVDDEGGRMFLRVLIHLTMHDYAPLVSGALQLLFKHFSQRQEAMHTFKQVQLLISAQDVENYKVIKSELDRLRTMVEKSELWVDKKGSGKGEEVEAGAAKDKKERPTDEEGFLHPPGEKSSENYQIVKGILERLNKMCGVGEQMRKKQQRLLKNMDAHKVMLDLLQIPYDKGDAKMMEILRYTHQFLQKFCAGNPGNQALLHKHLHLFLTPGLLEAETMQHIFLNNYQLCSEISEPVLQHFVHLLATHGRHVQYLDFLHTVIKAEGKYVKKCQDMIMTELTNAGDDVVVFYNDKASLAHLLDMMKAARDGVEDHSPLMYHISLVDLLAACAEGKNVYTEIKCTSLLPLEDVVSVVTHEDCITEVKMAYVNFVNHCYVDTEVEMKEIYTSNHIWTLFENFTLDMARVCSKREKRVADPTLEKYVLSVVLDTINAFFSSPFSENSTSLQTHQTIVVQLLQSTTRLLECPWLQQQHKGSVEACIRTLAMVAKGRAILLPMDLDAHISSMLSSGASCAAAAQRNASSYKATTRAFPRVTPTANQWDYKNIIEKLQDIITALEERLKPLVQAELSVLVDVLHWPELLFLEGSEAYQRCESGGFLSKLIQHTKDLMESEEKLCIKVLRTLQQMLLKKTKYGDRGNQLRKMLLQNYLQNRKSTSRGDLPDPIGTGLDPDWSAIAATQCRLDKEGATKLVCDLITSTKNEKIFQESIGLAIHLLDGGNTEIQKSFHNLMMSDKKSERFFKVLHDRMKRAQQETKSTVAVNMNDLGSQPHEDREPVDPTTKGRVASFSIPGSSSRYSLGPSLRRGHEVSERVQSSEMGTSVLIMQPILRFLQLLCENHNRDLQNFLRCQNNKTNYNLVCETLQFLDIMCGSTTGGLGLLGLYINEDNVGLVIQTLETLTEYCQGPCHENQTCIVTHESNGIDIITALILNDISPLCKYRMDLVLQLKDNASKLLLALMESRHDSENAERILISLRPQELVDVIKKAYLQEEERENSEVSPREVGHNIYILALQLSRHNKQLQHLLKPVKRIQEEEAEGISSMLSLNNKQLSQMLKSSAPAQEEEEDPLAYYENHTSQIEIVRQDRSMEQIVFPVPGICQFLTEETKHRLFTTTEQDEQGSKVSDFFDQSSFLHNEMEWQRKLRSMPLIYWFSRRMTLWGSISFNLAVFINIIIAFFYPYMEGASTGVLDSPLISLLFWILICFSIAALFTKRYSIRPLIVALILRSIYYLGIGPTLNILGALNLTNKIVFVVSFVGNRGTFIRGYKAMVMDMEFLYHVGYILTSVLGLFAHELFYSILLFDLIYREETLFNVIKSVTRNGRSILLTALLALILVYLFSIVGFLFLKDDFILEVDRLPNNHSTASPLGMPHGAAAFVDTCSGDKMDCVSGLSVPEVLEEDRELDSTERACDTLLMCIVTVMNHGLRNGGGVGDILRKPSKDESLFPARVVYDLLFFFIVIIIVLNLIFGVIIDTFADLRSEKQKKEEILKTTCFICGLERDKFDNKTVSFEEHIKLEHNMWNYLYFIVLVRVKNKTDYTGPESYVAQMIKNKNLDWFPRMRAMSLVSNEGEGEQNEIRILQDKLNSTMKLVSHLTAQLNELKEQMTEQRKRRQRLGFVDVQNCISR
UniProt P22392: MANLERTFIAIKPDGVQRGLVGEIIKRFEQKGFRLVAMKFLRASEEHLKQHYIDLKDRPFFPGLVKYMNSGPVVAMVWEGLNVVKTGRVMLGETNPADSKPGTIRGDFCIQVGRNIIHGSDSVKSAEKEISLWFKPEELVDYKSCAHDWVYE
UniProt P49721: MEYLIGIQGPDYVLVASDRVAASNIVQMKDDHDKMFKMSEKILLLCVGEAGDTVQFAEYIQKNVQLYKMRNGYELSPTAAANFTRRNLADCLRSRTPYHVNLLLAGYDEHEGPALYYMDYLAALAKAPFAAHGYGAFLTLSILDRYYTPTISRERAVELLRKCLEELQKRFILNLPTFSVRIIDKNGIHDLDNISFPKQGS
UniProt P37802: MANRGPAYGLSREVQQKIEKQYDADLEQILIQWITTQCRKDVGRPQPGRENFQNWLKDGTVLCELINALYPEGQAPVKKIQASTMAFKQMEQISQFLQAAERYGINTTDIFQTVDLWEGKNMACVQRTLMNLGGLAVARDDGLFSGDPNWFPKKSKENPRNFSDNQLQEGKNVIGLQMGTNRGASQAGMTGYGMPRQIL

For experiment [1], the target named is T1, KIAA1199-V5 (human) (UniProt Q8WUJ3).
T1 sequence: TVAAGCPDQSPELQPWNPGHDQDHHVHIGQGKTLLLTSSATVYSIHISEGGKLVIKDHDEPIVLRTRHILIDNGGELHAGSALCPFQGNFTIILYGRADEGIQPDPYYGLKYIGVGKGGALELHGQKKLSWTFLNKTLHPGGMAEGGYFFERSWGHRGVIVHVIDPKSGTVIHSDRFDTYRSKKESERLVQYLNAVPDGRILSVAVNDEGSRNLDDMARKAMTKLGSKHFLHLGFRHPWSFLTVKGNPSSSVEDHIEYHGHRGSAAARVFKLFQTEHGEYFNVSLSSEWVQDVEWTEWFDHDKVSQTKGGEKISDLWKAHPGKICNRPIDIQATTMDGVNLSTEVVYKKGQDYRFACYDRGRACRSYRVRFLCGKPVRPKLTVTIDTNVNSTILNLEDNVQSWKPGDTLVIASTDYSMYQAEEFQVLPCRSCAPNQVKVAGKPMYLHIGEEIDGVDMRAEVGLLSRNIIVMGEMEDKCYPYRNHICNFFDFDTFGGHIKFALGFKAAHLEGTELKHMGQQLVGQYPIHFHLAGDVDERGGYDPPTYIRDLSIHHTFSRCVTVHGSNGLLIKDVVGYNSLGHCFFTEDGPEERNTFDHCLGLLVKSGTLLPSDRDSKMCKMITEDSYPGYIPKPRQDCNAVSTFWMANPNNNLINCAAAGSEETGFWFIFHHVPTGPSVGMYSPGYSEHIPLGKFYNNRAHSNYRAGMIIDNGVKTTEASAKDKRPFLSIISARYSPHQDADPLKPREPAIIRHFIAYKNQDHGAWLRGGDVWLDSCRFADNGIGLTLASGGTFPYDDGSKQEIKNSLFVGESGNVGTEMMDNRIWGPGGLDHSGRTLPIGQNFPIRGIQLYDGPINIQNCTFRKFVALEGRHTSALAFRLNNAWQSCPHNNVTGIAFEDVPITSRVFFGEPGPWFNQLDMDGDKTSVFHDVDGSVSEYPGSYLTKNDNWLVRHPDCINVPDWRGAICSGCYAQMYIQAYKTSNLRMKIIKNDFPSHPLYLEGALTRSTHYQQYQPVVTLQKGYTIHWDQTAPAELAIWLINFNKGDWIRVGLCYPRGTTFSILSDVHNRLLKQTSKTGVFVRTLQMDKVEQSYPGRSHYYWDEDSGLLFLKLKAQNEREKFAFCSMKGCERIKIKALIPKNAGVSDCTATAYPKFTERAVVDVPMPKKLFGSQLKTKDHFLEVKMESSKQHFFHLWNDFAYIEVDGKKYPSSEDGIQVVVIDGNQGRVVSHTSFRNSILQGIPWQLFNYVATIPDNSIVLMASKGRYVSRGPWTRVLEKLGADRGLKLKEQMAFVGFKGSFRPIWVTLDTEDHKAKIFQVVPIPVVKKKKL
Description: affinity purification with mass spectrometry; three independent IPs of KIAA1199 from SW480 clone extracts (exp. 1 and 3 KIAA1199-V5, exp. 2 KIAA1199-Cl.18); IP lysis buffer 150 mM NaCl, 1% NP-40, 50 mM Tris-HCl pH 8.0; gel slices, trypsin, LTQ-Orbitrap or LTQ-ICR-FT-Ultra; hits in at least 2 of 3 experiments against control immunoprecipitates.

Experiment [2] concerns the target T1, KIAA1199-V5 (human). Described as above. The source holds these as a separate data set.

Where two headings read alike, the source gives them in different places. No constants are given. Whether binding was seen depends on the method and setting. Binding seen in cells or lysates may run through a third protein. A yes stands for co-enrichment or nearness to the bait. Other partners may have been found. Tags and fused reporters may be left off the sequences shown.

As to CANX (from UniProt P27824 21-592), in the experiment with KIAA1199-V5 (human) [1], the binding result is “binds”. Take CTSD (from UniProt P07339): in the experiment with KIAA1199-V5 (human) [1], the binding result was “binds”.

In the case of EIF3E (from UniProt P60228 1-445), the binding result with KIAA1199-V5 (human) [1] is “binds”. With “EPHA2 (from UniProt P29317 24-976) (receptor)”, the binding result with KIAA1199-V5 (human) [1] is “binds”.

On to H1FX (from UniProt Q92522 1-213), for which, in the experiment with KIAA1199-V5 (human) [1], the binding result is “binds”. Consider HSP90B1 (from UniProt P14625 22-803), for which the binding entry with KIAA1199-V5 (human) [1] is “binds”. Same read-out and setting: the entry for “ITPR3 (from UniProt Q14573 1-2671) (receptor)” is “binds”; for LGALS3 (from UniProt P17931 1-250) it is “binds”; for “LRP1 (from UniProt Q07954 20-4544) (receptor)” it is “binds”.

Regarding NME2 (from UniProt P22392 1-152), the binding entry in the experiment with KIAA1199-V5 (human) [1] is “binds”.

For the molecule PSMB2 (from UniProt P49721 1-201), the binding entry in the experiment with KIAA1199-V5 (human) [1] is given as “binds”. Consider TAGLN2 (from UniProt P37802 1-199), for which, in the experiment with KIAA1199-V5 (human) [1], the binding entry is “binds”. On to TARDBP (from UniProt Q13148 1-414), for which the binding result with KIAA1199-V5 (human) [1] was “binds”. For TLN1 (from UniProt Q9Y490 1-2541), the binding entry in the experiment with KIAA1199-V5 (human) [1] is “binds”. Same read-out and setting: as for UBR5 (from UniProt O95071 1-2799), the entry is “binds”.

B1: calpain small subunit (CAPNS1) (protein, UniProt P04632 1-268)
chain: MFLVNSFLKGGGGGGGGGGGLGGGLGNVLGGLISGAGGGGGGGGGGGGGGGGGGGGTAMRILGGVISAISEAAAQYNPEPPPPRTHYSNIEANESEEVRQFRRLFAQLAGDDMEVSATELMNILNKVVTRHPDLKTDGFGIDTCRSMVAVMDSDTTGKLGFEEFKYLWNNIKRWQAIYKQFDTDRSGTICSSELPGAFEAAGFHLNEHLYNMIIRRYSDESGNMDFDNFISCLVRLDAMFRAFKSLDKDGTGQIQVNIQEWLQLTMYS
Regarding B1, the binding entry with KIAA1199-V5 (human) [2] is listed as “binds”.

B2: HYOU1 (protein, UniProt Q9Y4L1 33-999)
chain: LAVMSVDLGSESMKVAIVKPGVPMEIVLNKESRRKTPVIVTLKENERFFGDSAASMAIKNPKATLRYFQHLLGKQADNPHVALYQARFPEHELTFDPQRQTVHFQISSQLQFSPEEVLGMVLNYSRSLAEDFAEQPIKDAVITVPVFFNQAERRAVLQAARMAGLKVLQLINDNTATALSYGVFRRKDINTTAQNIMFYDMGSGSTVCTIVTYQMVKTKEAGMQPQLQIRGVGFDRTLGGLEMELRLRERLAGLFNEQRKGQRAKDVRENPRAMAKLLREANRLKTVLSANADHMAQIEGLMDDVDFKAKVTRVEFEELCADLFERVPGPVQQALQSAEMSLDEIEQVILVGGATRVPRVQEVLLKAVGKEELGKNINADEAAAMGAVYQAAALSKAFKVKPFVVRDAVVYPILVEFTREVEEEPGIHSLKHNKRVLFSRMGPYPQRKVITFNRYSHDFNFHINYGDLGFLGPEDLRVFGSQNLTTVKLKGVGDSFKKYPDYESKGIKAHFNLDESGVLSLDRVESVFETLVEDSAEEESTLTKLGNTISSLFGGGTTPDAKENGTDTVQEEEESPAEGSKDEPGEQVELKEEAEAPVEDGSQPPPPEPKGDATPEGEKATEKENGDKSEAQKPSEKAEAGPEGVAPAPEGEKKQKPARKRRMVEEIGVELVVLDLPDLPEDKLAQSVQKLQDLTLRDLEKQEREKAANSLEAFIFETQDKLYQPEYQEVSTEEQREEISGKLSAASTWLEDEGVGATTVMLKEKLAELRKLCQGLFFRVEERKKWPERLSALDNLLNHSSMFLKGARLIPEMDQIFTEVEMTTLEKVINETWAWKNATLAEQAKLPATEKPVLLSKDIEAKMMALDREVQYLLNKAKFTKPRPRPKDKNGTRAEPPLNASASDQGEKVIPPAGQTEDAEPISEPEKVETGSEPGDTEPLELGGPGAEPEQKEQSTGQKRPLKNDEL
On to B2, for which, in the experiment with KIAA1199-V5 (human) [2], the binding entry is “binds”.

B3: HPRT1 (protein, UniProt P00492 1-218)
chain: MATRSPGVVISDDEPGYDLDLFCIPNHYAEDLERVFIPHGLIMDRTERLARDVMKEMGGHHIVALCVLKGGYKFFADLLDYIKALNRNSDRSIPMTVDFIRLKSYCNDQSTGDIKVIGGDDLSTLTGKNVLIVEDIIDTGKTMQTLLSLVRQYNPKMVKVASLLVKRTPRSVGYKPDFVGFEIPDKFVVGYALDYNEYFRDLNHVCVISETGKAKYKA
Consider B3, for which the binding result with KIAA1199-V5 (human) [2] was “binds”.

B4: TKT (protein, UniProt P29401 1-623)
chain: MESYHKPDQQKLQALKDTANRLRISSIQATTAAGSGHPTSCCSAAEIMAVLFFHTMRYKSQDPRNPHNDRFVLSKGHAAPILYAVWAEAGFLAEAELLNLRKISSDLDGHPVPKQAFTDVATGSLGQGLGAACGMAYTGKYFDKASYRVYCLLGDGELSEGSVWEAMAFASIYKLDNLVAILDINRLGQSDPAPLQHQMDIYQKRCEAFGWHAIIVDGHSVEELCKAFGQAKHQPTAIIAKTFKGRGITGVEDKESWHGKPLPKNMAEQIIQEIYSQIQSKKKILATPPQEDAPSVDIANIRMPSLPSYKVGDKIATRKAYGQALAKLGHASDRIIALDGDTKNSTFSEIFKKEHPDRFIECYIAEQNMVSIAVGCATRNRTVPFCSTFAAFFTRAFDQIRMAAISESNINLCGSHCGVSIGEDGPSQMALEDLAMFRSVPTSTVFYPSDGVATEKAVELAANTKGICFIRTSRPENAIIYNNNEDFQVGQAKVVLKSKDDQVTVIGAGVTLHEALAAAELLKKEKINIRVLDPFTIKPLDRKLILDSARATKGRILTVEDHYYEGGIGEAVSSAVVGEPGITVTHLAVNRVPRSGKPAELLKMFGIDRDAIAQAVRGLITKA
As for B4, the binding entry in the experiment with KIAA1199-V5 (human) [2] was “binds”.

B5: CTNND1 (protein, UniProt O60716 1-968)
chain: MDDSEVESTASILASVKEQEAQFEKLTRALEEERRHVSAQLERVRVSPQDANPLMANGTLTRRHQNGRFVGDADLERQKFSDLKLNGPQDHSHLLYSTIPRMQEPGQIVETYTEEDPEGAMSVVSVETSDDGTTRRTETTVKKVVKTVTTRTVQPVAMGPDGLPVDASSVSNNYIQTLGRDFRKNGNGGPGPYVGQAGTATLPRNFHYPPDGYSRHYEDGYPGGSDNYGSLSRVTRIEERYRPSMEGYRAPSRQDVYGPQPQVRVGGSSVDLHRFHPEPYGLEDDQRSMGYDDLDYGMMSDYGTARRTGTPSDPRRRLRSYEDMIGEEVPSDQYYWAPLAQHERGSLASLDSLRKGGPPPPNWRQPELPEVIAMLGFRLDAVKSNAAAYLQHLCYRNDKVKTDVRKLKGIPVLVGLLDHPKKEVHLGACGALKNISFGRDQDNKIAIKNCDGVPALVRLLRKARDMDLTEVITGTLWNLSSHDSIKMEIVDHALHALTDEVIIPHSGWEREPNEDCKPRHIEWESVLTNTAGCLRNVSSERSEARRKLRECDGLVDALIFIVQAEIGQKDSDSKLVENCVCLLRNLSYQVHREIPQAERYQEAAPNVANNTGPHAASCFGAKKGKDEWFSRGKKPIEDPANDTVDFPKRTSPARGYELLFQPEVVRIYISLLKESKTPAILEASAGAIQNLCAGRWTYGRYIRSALRQEKALSAIADLLTNEHERVVKAASGALRNLAVDARNKELIGKHAIPNLVKNLPGGQQNSSWNFSEDTVISILNTINEVIAENLEAAKKLRETQGIEKLVLINKSGNRSEKEVRAAALVLQTIWGYKELRKPLEKEGWKKSDFQVNLNNASRSQSSHSYDDSTLPLIDRNQKSDKKPDREEIQMSNMGSNTKSLDNNYSTPNERGDHNRTLDRSGDLGDMEPLKGTTPLMQDEGQESLEEELDVLVLDDEGGQVSYPSMQKI
As to B5, the binding result with KIAA1199-V5 (human) [2] is recorded as “binds”.

B6: MFGE8 (protein, UniProt Q08431 24-387)
chain: LDICSKNPCHNGGLCEEISQEVRGDVFPSYTCTCLKGYAGNHCETKCVEPLGLENGNIANSQIAASSVRVTFLGLQHWVPELARLNRAGMVNAWTPSSNDDNPWIQVNLLRRMWVTGVVTQGASRLASHEYLKAFKVAYSLNGHEFDFIHDVNKKHKEFVGNWNKNAVHVNLFETPVEAQYVRLYPTSCHTACTLRFELLGCELNGCANPLGLKNNSIPDKQITASSSYKTWGLHLFSWNPSYARLDKQGNFNAWVAGSYGNDQWLQVDLGSSKEVTGIITQGARNFGSVQFVASYKVAYSNDSANWTEYQDPRTGSSKIFPGNWDNHSHKKNLFETPILARYVRILPVAWHNRIALRLELLGC
As to B6, the binding entry with KIAA1199-V5 (human) [2] is listed as “binds”.
